Assay: Organoleptic evaluation by a panel of 10 people
Set-up: species or system human
[1] = 1=very unpleasant, 2=unpleasant, 3=sufficient, 4=good, 5=excellent

## CC(=O)Oc1c(C)c(C)c2c(c1C)CCC(C)(CCC[C@H](C)CCC[C@H](C)CCCC(C)C)O2 (some centres unmarked) [Comp A, Vitamin E acetate]
[1]
  Absorption, mean score: 1.30
  Likeliness, mean score: 1.30
  Spreadability, mean score: 1.60
  Texture, mean score: 1.70
Stickiness 1=excessive, 2=average, 3=poor, 4=absent
  Tackiness, mean score: 1.30

Source: US20200069552A1, “COSMETIC AND/OR DERMATOLOGICAL COMPOSITION, AND USES THEREOF IN THE COSMETIC FIELD AND IN THE ADJUVANT TREATMENT OF DERMATOLOGICAL PATHOLOGIES” (ISTITUTO GANASSINI S.P.A. DI RICERCHE BIOCHIMICHE, priority 2017, published 2020)
